Among all 400,000 compounds or so, about 13,000 (3.2%) were called active. The inconclusive results got no clear call from the source; some entries with a clear call stand among them for comparison. Calls come from the whole dose curve; as a rule, active = well fitted cell-killing curve with a large enough effect; inconclusive = small, poorly fitted or top-dose-only effect, or effect the other way; inactive = flat fitted curve, though single readings scatter. Where the call is inconclusive, the potency comes from a doubtful curve fit.
assay: qHTS assay for MDR1-selective chemotherapeutics: Primary screen using the drug-selected MDR subline cells KB-V1; conditions: KB-V1 MDR cells viability, CellTiter-Glo, 72 h; activity change, negative = cytotoxicity: at 46.1 µM (top of the series); note: nearly all actives have a fitted effect of over 60% in size
From the text: A prime difficulty in effectively treating cancer is the development of cellular resistance to multiple structurally unrelated anticancer drugs, a phenomenon known as multidrug resistance (MDR). […] Numerous strategies to overcome P-gp-mediated MDR have been explored, including the design of drugs that evade recognition and efflux, and development of inhibitors to block efflux and restore drug accumulation. […] An alternative approach is to exploit resistance by identifying drugs that target MDR cells over the non-resistant parental cells from which they were selected. […] The development of MDR1-selective agents represents a new strategy for resolving multidrug resistance, as it remains a long-standing clinical challenge for cancer chemotherapy.
Our goal is to identify compounds that selectively kill P-gp-expressing MDR cells. We will identify MDR1-selective compounds by comparing toxicity of compounds in the screening library against parental, drug-naive (KB-3-1) adenocarcinoma cells as well as their drug-selected MDR sub-line (KB-V1). The differential toxicity of compounds against these two cell lines will be used to identify MDR1-selective compounds, whose cytotoxicity is potentiated, rather than diminished, by P-gp expression. This assay will be utilized to conduct a quantitative high-throughput screen (qHTS) in collaboration with the NIH Chemical Genomics Center to identify selective agents, and probe hits arising from the screen will be validated using secondary assays and characterized through a well-established follow-up research program. This screen was run against the entire NCGC library collection of about 400,000 compounds.
NIH Molecular Libraries Probe Production Network [MLPCN]
NIH Chemical Genomics Center [NCGC]
PI: Michael Gottesman, National Cancer Institute, NIH
Briefly, 5 microL of media containing either KB-V1 cells (columns 1-2, 4-48) are dispensed into Greiner white, treated solid-bottom 1536-well assay plates (media-only control is added to column 3). Compounds are then transferred via Kalypsys pin tool equipped with 1536-pin array (10 nL slotted pins, V&P Scientific, San Diego, CA). Following addition of compound, the plates are incubated at 37 degrees C for 72 hours. CellTiter-Glo (2.5 µL/well) is then added, and the plates are read in a ViewLux reader (Perkin-Elmer, clear luminescence filter, 1 second exposure, 1x binning) following a 10 minute incubation. All cells are dispensed in DMEM phenol-red free media containing 10% FBS.
Library plates were screened starting from the lowest and proceeding to the highest concentration. Vehicle-only plates, with DMSO being pin-transferred to columns 5-48, will be inserted uniformly at the beginning and the end of each library in order to monitor and record any shifts in the background, which can be affected by reagent dispensers or loss in enzyme activity over time. Screening data will be corrected, normalized, and concentration-effect relationships will be derived by using publicly-available NCGC, NCATS curve fitting algorithms (http://ncgc.nih.gov/pub/openhts).
% is set by controls: 0 for no effect and ±100 for the full control effect; potency is the fitted concentration of half-maximal effect.

SMILES | Potency | activity change, negative = cytotoxicity
Oc1c(Br)cc(Br)c2cccnc12 | inconclusive: 13 µM [cytotoxic, partial curve] | –
Cc1ccc2nc(COc3ccccc3NC(=O)COc3ccccc3Cl)cc(=O)n2c1 | inconclusive: 20.6 µM [rising, single point] | –
O=[N+]([O-])c1cccc(NC2=NCCC2)c1 | – | inactive: -2.33%
Cc1cc(C)n(-c2ccc(C(=O)Nc3cc(S(=O)(=O)N(C)C)ccc3Cl)cc2)n1 | inconclusive: 0.651 µM [cytotoxic, full curve, poor fit] | –
CCN(c1ccc(NC(=O)c2ccc(Cl)nc2)cc1)C(C)C | inconclusive: 29.1 µM [cytotoxic, single point] | –
CCOc1ccc(CNC(=O)c2ccc3c(c2)nnn3C2CCCC2)cc1 | – | inactive: 5.56%
Cc1ccc(CNC(=O)C(OC(=O)c2ccco2)C(C)C)cc1 (stereo unspecified) | inconclusive: 20.6 µM [cytotoxic, single point] | –
CCc1ccc2oc(-c3ccc(N)cc3)nc2c1 | inconclusive: 29.1 µM [cytotoxic, single point] | –
Cc1ccc(S(=O)(=O)C(CNC(=O)Cc2ccc(Cl)cc2)c2cccs2)cc1 (stereo unspecified) | inconclusive: 0.0231 µM [cytotoxic, full curve] | –
Cc1occc1-c1nnc(SCC(=O)Nc2ccc(F)cc2)n1Cc1ccccc1 | active: 8.2 µM | –
CCOCCCNC(=O)c1c(NC(=O)c2cc(=O)c3ccccc3o2)sc2c1CCC2 | – | inactive: -17.5%
CC(C)c1csc(CN2CCCC(CNC(=O)c3cccc4ccccc34)C2)n1 (stereo unspecified) | – | inactive: -3.59%
Cc1c(C)c2c(OCC(=O)NCc3ccccn3)cc3c(c2oc1=O)CCC(C)(C)O3 | inconclusive: 29.1 µM [cytotoxic, single point] | –
CCCc1cc(C(=O)N(C2CCCCC2)C2CCCCC2)no1 | – | inactive: 11.6%
CC1(C)Cc2cccc(C(=O)Nc3ccncc3)c2O1 | inconclusive: 32.6 µM [cytotoxic, single point] | –
CCOc1ccc(NC(=O)c2ccccc2NC(=O)CN2CCN(C(C)=O)CC2)cc1 | inconclusive: 20.6 µM [cytotoxic, partial curve] | –
COC(=O)c1ccc(C)c(NS(=O)(=O)c2ccc3c(c2)OCCO3)c1 | active: 1.16 µM | –
Cc1ccc(C)c(N2CCN(C(=O)CC3Sc4ccccc4NC3=O)CC2)c1 (stereo unspecified) | active: 16.4 µM | –
CCOC(=O)c1ccc(NC(=O)Cn2ncc3c(C)n(Cc4ccccc4F)c(C)c3c2=O)cc1 | – | inactive: 1.41%
O=c1c2cnn(-c3ccc(F)cc3)c2ncn1Cc1cccnc1 | inconclusive: 14.6 µM [cytotoxic, partial curve, poor fit] | –
Brc1ccccc1-c1nnc2sc(-c3ccc4c(c3)OCCO4)nn12 | inconclusive: 18.4 µM [cytotoxic, single point] | –
CN(CCNC(=O)c1ccc(CS(=O)(=O)c2c(Cl)cccc2Cl)o1)CCc1ccccc1 | – | inactive: 5.39%
COc1cc2c(cc1OC)-c1cc(Nc3ccc(C(=O)O)cc3)nc(=O)n1CC2 | inconclusive: 0.731 µM [cytotoxic, full curve, poor fit] | –

Compounds from the list above that have a Cl atom, in the order listed:
SMILES | Potency | activity change, negative = cytotoxicity
Cc1ccc2nc(COc3ccccc3NC(=O)COc3ccccc3Cl)cc(=O)n2c1 | inconclusive: 20.6 µM [rising, single point] | –
Cc1cc(C)n(-c2ccc(C(=O)Nc3cc(S(=O)(=O)N(C)C)ccc3Cl)cc2)n1 | inconclusive: 0.651 µM [cytotoxic, full curve, poor fit] | –
CCN(c1ccc(NC(=O)c2ccc(Cl)nc2)cc1)C(C)C | inconclusive: 29.1 µM [cytotoxic, single point] | –
Cc1ccc(S(=O)(=O)C(CNC(=O)Cc2ccc(Cl)cc2)c2cccs2)cc1 (stereo unspecified) | inconclusive: 0.0231 µM [cytotoxic, full curve] | –
CN(CCNC(=O)c1ccc(CS(=O)(=O)c2c(Cl)cccc2Cl)o1)CCc1ccccc1 | – | inactive: 5.39%

(cont.)

SMILES | Potency | activity change, negative = cytotoxicity
CN(C)c1cccc(C(=O)Nc2nc3ccccc3[nH]2)c1 | inconclusive: 18.4 µM [cytotoxic, single point] | –
Cc1ccc2c(=O)cc(C(=O)Nc3c(C(=O)Nc4cccc(Cl)c4)oc4ccccc34)oc2c1 | inconclusive: 29.1 µM [rising, single point] | –
Cc1ccc(-n2c(SCC(=O)NNC(=S)Nc3ccccc3)nc3ccccc3c2=O)cc1 | inconclusive: 29.1 µM [cytotoxic, single point] | –
C#CCN(C[C@@H]1[C@@H](OC(=O)NCC2CCCCC2)[C@@H](OC(=O)NCC2CCCCC2)Cn2c(=O)n(CCCCCC)c(=O)n21)S(=O)(=O)c1ccc(C)cc1 | – | inconclusive: 32.4%
COC1=CC(=O)C(C2CC(=O)c3c(O)cc(O)cc3O2)=CC1=O (stereo unspecified) | inconclusive: 23.1 µM [cytotoxic, single point] | –
CCOC(=O)c1c(NC(=O)CSc2nc3ccccc3s2)sc(C(C)=O)c1C | active: 20.6 µM | –
O=C(c1ccccc1)c1ccncc1 | inconclusive: 10.3 µM [rising, partial curve, poor fit] | –
CCCC1NC(=O)c2cccnc2-n2c1nc1ccc(OC)cc1c2=O (stereo unspecified) | – | inactive: -7.8%
C=C(C)C(=O)Nc1cccc(C2=NOC3(C2)C[C@@H](C(N)=O)N(C(=O)CC(c2ccccc2)c2ccccc2)C3)c1 (stereo partly specified) | inconclusive: 3.26 µM [rising, full curve, poor fit] | –
O=C(CN1CCC(n2nnc3ccccc32)CC1)NCc1cccs1 | active: 23.1 µM | –
O=C(NCC1CCCO1)c1ccc(Cl)c(NS(=O)(=O)c2ccc(F)cc2)c1 (stereo unspecified) | inconclusive: 29.1 µM [rising, single point] | –
O=C(Nc1ccc(S(=O)(=O)NC2CCCCC2)cc1)c1ccco1 | inconclusive: 16.4 µM [cytotoxic, single point] | –
Cc1cc(C)nc(SCCCn2c(=O)[nH]c3ccccc32)n1 | active: 9.2 µM | –
CCN(CCCNC(=O)c1cc(Nc2ccc(OC)cc2OC)nc2ccccc12)c1cccc(C)c1 | – | inactive: -20%
CSc1ccc(/C=C/c2cc(=O)c3ccccc3[nH]2)cc1 | active: 3.66 µM | –
Cc1c(C(=O)Nc2ccccn2)oc2ccc(Br)cc12 | active: 11.6 µM | –
Cc1ccc(O)c(NC(=O)c2cc(-c3ccccc3Cl)on2)c1 | – | inactive: 2.73%
CC1CCN(c2ccc(C(=O)NCc3cccs3)cn2)CC1 | inconclusive: 18.4 µM [cytotoxic, single point] | –
Cc1cccc2cc3c(N)c(C(=O)N4CCOCC4)sc3nc12 | active: 3.66 µM | –
COc1ccccc1CCNC(=O)c1cc(-c2ccccn2)nc2ccccc12 | inconclusive: 18.4 µM [cytotoxic, single point] | –
Cc1cc2nc(SCCOC(=O)Nc3ccccc3)nc(C)c2cc1C | active: 20.6 µM | –
Cn1c(=O)n(C)c2cc(NC(=O)CSc3nnc(-c4ccccc4O)n3-c3ccccc3)ccc21 | inconclusive: 16.4 µM [cytotoxic, partial curve] | –
Nc1nc(NCC2CCCO2)nc(Nc2ccccc2)c1[N+](=O)[O-] (stereo unspecified) | active: 10.3 µM | –

Source: PubChem BioAssay AID1347076 (National Center for Advancing Translational Sciences (NCATS), 2019)
